Results reported in the supplement of paper PMC12889115.
Some of the results follow. Values are raw readings; no control value is given beside them.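 First-pass screen: polymyxin B was added at a level that permeabilizes the Salmonella outer membrane while sparing the inner membrane. DMSO wells, with and without polymyxin B, defined maximum growth. Because plates differed from one another, each plate's data were ranked separately and the compounds with the lowest OD600 were carried forward as hits.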

Test system: Salmonella enterica serovar Typhimurium SL1344
Assay: bacterial growth OD600 after 18 h with compound and polymyxin B; higher = more bacterial growth (less inhibition)
Conditions: 50 µM, Mueller-Hinton broth

| SMILES | bacterial growth OD600 (polymyxin B 1 µg/mL) | bacterial growth OD600 (polymyxin B 0.75 µg/mL) |
| --- | --- | --- |
| COc1ccc2ccc(OCc3nc(C(=O)NC(C)(C)C)co3)cc2c1 | 0.746 | – |
| CSc1ccc(CC2(CCC(=O)N3CCC(c4ccc(F)cc4)C3)CCC(=O)N2)cc1 (stereo unspecified) | – | 0.962 |
| CC(=O)CC(C)C(=O)N1CCc2ccc(NC(=O)CCc3ccc(C)cc3)cc2C1 (stereo unspecified) | 0.98 | – |
| CN(c1ncccc1CNC(=O)c1ccco1)C1CCCCC1 | 0.675 | – |
| COc1ccc(CC2(CCC(=O)N(CC3CCC3)CC3CCCO3)CCC(=O)N2)c2ccccc12 (stereo unspecified) | – | 0.791 |
| CCCNC(=O)N1CCC2(CCCN(Cc3cccc(C)c3)C2=O)C1 (stereo unspecified) | 1 | – |
| Cc1cccc(Cc2nnc(CCC(=O)N(C)CC3CCN(CC(C)C)CC3)o2)c1 | – | 0.8 |
| O=C(c1ccsc1)N1CCOC(Cc2ccccc2)C1 (stereo unspecified) | – | 0.856 |
| CN(Cc1ccccc1)C1CCCN(Cc2ccc(O)cc2)C1 (stereo unspecified) | 0.812 | – |
| OCC1(CCc2ccccc2)CCCN(Cc2cc3ccccc3o2)C1 (stereo unspecified) | 0.69 | – |
| CC(C)n1cc(CN2CCC(CO)(Cc3ccccc3Cl)CC2)cn1 | 0.57 | – |
| O=C(CCC1CCN(C(=O)CCC(=O)c2ccccc2)CC1)Nc1ccccc1 | 1.07 | – |
| COc1ccc(C(=O)NC2CCCN(Cc3ccccc3F)C2)c(OC)c1OC (stereo unspecified) | 0.909 | – |
| COC(=O)C1CCN(CC2(O)CCCN(Cc3cccc(F)c3F)C2=O)CC1 (stereo unspecified) | 0.869 | – |
| COc1cc(=O)n2c(c1C(=O)N(C)Cc1nonc1C)CCN(C(=O)C1(C)CCCCC1)CC2 | – | 0.915 |
| CCCN1CCC(NC2CCCc3nc(-c4ccccc4)ncc32)CC1 (stereo unspecified) | – | 0.902 |

Given with each value named: entries from further up
CCCNC(=O)N1CCC2(CCCN(Cc3cccc(C)c3)C2=O)C1 (stereo unspecified)
  bacterial growth OD600 (polymyxin B 1 µg/mL): 1
Cc1cccc(Cc2nnc(CCC(=O)N(C)CC3CCN(CC(C)C)CC3)o2)c1
  bacterial growth OD600 (polymyxin B 0.75 µg/mL): 0.8
O=C(c1ccsc1)N1CCOC(Cc2ccccc2)C1 (stereo unspecified)
  bacterial growth OD600 (polymyxin B 0.75 µg/mL): 0.856

Next part.

| SMILES | bacterial growth OD600 (polymyxin B 1 µg/mL) | bacterial growth OD600 (polymyxin B 0.75 µg/mL) |
| --- | --- | --- |
| COc1cccc(C(C)N(C)C(=O)c2cc(Cn3ccnc3C(C)C)[nH]n2)c1 (stereo unspecified) | 0.985 | – |
| CCN(C)CC1(O)CCCN(Cc2ccc(F)c(F)c2)C1=O (stereo unspecified) | 1 | – |
| COc1ccc(C(=O)CCC(=O)N2CCC(CCC(=O)NC3CC3)CC2)cc1 | 0.972 | – |
| COc1ccc(CC(=O)NCC2CCCN(C(=O)c3occc3C)C2)cc1 (stereo unspecified) | – | 0.955 |
| OC[C@@H]1CCCN1c1ccc(-c2nc(-c3ccccc3F)no2)cn1 | 0.68 | – |
| CCN(Cc1ccccc1)C(=O)c1coc(COc2ccccc2)n1 | – | 0.072 |
| Cc1ccc(CN(C)C(=O)CC2(c3cccc(C(F)(F)F)c3)CC(=O)N(C3CC3)C2=O)cc1 (stereo unspecified) | – | 0.006 |
| O=C(CCCCc1ccccc1)Nc1ccc(N2CCC(NCCCc3cccnc3)CC2)cc1 | – | 0.824 |
| C=CCS(=O)(=O)N1CCCC1C(=O)Nc1ccccc1-c1ccc(OC)cc1 (stereo unspecified) | – | 0.783 |
| CCN(C)CC1(O)CCCN(Cc2cccc(OC)c2)C1=O (stereo unspecified) | 0.807 | – |
| CC(C)N1CCN(C(=O)c2coc(COc3ccccc3)n2)CC1 | – | 0.981 |
| O=C(NC1CC1)C1CCN(C2CCN(C3C4CC5CC(C4)CC3C5)CC2)CC1 (stereo unspecified) | 0.641 | – |
| COc1ccc(CC(=O)NCC2CCCN(CCCn3cccn3)C2)cc1 (stereo unspecified) | 0.966 | – |
| O=C1N(CC2CCC2)CCCC1(O)CN1CCC(O)CC1 (stereo unspecified) | 0.905 | – |
| Cc1ccccc1N1CCN(C(=O)CCC2(Cc3ccc(-c4ccccc4)cc3)CCC(=O)N2)CC1 (stereo unspecified) | – | 0.003 |
